Source: the supplement of paper PMC10060354, “Discovery of a small molecule ligand of FRS2 that inhibits invasion and tumor growth” (Cellular Oncology, 2022)

Chains of the proteins cited; added tags and fusions are not shown. Lines headed by an entry give the natural chain unless they say otherwise; changes in a name come on top.
UniProt Q96J66: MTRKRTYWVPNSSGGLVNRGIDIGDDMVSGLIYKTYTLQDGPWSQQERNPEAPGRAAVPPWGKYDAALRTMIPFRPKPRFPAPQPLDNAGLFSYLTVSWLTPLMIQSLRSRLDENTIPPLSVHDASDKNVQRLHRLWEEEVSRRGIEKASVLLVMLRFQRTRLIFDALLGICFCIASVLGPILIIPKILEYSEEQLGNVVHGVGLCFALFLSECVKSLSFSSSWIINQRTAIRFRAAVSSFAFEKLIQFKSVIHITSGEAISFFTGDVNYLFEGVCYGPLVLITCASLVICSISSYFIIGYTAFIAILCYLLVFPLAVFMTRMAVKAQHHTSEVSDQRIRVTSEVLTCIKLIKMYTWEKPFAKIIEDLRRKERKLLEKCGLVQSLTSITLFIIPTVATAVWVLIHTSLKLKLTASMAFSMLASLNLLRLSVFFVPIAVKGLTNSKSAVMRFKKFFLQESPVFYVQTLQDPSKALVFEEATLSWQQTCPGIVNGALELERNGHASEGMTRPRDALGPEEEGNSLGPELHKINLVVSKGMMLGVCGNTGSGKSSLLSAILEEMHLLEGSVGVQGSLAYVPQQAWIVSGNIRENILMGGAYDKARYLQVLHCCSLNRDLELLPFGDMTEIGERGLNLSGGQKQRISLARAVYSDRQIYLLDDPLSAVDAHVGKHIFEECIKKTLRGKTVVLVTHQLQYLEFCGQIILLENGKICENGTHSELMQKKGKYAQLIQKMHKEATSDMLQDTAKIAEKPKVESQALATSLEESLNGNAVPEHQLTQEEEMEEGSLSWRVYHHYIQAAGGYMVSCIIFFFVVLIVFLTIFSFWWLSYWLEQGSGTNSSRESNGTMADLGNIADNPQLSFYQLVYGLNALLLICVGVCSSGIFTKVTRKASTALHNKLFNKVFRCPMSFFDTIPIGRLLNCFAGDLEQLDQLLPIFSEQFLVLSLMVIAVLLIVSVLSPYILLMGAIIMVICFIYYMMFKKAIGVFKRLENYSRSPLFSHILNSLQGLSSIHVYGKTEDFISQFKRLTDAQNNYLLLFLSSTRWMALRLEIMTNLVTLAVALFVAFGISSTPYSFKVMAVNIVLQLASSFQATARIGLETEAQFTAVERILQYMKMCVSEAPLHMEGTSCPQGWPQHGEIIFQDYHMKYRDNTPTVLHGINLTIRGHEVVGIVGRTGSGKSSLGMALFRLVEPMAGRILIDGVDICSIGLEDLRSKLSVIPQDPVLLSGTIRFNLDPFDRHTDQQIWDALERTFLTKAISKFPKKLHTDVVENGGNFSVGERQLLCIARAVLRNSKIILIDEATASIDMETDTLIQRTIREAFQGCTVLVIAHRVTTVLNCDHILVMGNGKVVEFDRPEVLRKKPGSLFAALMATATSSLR
UniProt Q92784, whole entry: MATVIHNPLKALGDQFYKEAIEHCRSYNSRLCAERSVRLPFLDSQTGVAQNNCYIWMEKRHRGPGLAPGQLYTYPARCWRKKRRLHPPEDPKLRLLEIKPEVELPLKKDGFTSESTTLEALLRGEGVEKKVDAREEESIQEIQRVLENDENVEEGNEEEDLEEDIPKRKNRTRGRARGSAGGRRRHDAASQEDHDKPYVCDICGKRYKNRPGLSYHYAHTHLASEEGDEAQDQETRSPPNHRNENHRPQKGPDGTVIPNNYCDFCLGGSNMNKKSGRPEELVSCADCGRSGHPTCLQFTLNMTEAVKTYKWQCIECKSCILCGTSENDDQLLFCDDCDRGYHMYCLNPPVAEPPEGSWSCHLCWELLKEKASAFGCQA
UniProt Q9BRT3: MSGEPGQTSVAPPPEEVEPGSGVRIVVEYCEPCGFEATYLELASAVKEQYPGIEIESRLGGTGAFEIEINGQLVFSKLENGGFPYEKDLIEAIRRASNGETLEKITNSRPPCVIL
UniProt P41223: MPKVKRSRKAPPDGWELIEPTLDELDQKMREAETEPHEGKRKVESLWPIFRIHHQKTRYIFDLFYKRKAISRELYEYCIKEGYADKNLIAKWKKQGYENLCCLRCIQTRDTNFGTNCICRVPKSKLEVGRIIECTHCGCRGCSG
UniProt Q92696: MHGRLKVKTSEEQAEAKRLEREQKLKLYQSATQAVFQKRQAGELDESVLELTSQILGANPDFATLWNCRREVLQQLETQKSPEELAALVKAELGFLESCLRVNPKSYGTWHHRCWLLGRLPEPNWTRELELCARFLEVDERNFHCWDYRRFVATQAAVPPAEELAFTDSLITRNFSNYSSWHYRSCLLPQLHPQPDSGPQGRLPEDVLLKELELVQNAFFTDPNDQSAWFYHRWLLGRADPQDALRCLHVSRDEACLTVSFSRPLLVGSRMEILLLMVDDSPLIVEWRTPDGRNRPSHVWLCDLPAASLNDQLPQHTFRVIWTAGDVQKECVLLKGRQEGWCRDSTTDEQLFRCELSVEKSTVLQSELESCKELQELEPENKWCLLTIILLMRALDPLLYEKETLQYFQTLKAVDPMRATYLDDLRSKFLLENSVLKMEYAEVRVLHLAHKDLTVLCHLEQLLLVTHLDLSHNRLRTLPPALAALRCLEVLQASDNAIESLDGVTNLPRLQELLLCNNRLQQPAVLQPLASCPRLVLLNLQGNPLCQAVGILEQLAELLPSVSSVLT
UniProt P14735, whole entry: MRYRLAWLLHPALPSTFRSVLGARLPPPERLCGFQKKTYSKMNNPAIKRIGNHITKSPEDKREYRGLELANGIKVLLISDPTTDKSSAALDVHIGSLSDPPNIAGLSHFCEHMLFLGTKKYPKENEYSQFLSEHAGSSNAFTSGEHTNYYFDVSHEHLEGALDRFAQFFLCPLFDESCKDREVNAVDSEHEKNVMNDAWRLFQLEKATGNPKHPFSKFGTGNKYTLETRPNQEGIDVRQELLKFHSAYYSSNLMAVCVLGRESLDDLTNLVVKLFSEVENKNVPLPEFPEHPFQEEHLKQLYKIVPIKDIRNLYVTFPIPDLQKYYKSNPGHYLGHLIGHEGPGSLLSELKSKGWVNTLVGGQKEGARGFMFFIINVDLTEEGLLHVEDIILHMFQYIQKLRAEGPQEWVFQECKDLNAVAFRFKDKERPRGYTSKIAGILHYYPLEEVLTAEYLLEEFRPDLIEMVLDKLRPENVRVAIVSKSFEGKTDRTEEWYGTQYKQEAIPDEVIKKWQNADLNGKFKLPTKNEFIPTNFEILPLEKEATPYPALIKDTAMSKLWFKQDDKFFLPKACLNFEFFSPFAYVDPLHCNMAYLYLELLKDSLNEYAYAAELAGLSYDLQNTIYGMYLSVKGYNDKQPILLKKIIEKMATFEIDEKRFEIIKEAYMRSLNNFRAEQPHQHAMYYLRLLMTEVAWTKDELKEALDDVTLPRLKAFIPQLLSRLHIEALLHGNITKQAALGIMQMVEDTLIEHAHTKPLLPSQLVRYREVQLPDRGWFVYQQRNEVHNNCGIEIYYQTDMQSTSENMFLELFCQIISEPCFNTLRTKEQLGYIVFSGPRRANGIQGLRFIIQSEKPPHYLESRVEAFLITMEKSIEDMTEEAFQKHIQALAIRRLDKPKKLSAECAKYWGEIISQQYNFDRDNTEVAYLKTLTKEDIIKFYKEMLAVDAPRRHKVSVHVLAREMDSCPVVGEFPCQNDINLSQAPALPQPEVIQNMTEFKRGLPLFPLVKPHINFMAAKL
UniProt O60732: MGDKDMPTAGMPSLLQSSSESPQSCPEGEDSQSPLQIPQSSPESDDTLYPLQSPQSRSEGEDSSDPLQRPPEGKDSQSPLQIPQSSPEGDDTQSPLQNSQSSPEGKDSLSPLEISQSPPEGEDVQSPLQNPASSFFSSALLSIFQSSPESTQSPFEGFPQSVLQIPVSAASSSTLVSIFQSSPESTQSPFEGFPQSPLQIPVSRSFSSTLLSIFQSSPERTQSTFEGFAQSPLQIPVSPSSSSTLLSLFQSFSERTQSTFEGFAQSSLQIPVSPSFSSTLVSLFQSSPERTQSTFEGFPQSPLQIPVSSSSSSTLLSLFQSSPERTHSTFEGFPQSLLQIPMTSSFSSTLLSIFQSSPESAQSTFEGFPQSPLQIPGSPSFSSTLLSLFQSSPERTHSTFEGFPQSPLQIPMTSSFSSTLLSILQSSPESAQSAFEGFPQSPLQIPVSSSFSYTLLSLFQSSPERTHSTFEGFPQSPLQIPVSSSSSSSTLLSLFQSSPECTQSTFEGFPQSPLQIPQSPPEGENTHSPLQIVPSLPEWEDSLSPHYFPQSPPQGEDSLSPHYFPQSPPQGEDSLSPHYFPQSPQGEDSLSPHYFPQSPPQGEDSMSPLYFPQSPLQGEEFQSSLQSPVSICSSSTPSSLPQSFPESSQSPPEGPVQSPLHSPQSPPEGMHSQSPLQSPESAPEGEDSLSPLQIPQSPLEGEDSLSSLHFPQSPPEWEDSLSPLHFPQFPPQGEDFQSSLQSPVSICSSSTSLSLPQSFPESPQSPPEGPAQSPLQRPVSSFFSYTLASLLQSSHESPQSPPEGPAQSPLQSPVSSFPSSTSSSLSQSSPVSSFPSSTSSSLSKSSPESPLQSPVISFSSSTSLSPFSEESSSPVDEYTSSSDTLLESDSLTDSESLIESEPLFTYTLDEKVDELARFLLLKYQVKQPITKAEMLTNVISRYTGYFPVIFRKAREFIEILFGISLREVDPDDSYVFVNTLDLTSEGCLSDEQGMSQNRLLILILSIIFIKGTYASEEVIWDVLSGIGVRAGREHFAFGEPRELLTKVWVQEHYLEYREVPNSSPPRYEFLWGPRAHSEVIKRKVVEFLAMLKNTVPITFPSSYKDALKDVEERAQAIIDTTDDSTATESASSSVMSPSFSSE
UniProt Q8TAA9: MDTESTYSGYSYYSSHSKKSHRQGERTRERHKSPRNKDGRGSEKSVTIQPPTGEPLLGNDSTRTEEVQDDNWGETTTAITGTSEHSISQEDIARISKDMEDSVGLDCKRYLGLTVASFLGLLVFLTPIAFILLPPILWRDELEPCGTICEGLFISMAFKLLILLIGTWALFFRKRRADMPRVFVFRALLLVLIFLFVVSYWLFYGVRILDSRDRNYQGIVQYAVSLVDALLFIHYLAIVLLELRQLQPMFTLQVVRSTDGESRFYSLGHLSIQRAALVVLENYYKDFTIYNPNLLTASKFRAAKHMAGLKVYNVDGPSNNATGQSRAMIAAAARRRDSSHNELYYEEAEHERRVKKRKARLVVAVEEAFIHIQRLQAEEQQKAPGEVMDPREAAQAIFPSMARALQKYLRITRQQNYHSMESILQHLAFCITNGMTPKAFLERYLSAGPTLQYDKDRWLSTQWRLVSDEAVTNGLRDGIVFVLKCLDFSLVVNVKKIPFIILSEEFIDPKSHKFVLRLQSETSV
UniProt P29728: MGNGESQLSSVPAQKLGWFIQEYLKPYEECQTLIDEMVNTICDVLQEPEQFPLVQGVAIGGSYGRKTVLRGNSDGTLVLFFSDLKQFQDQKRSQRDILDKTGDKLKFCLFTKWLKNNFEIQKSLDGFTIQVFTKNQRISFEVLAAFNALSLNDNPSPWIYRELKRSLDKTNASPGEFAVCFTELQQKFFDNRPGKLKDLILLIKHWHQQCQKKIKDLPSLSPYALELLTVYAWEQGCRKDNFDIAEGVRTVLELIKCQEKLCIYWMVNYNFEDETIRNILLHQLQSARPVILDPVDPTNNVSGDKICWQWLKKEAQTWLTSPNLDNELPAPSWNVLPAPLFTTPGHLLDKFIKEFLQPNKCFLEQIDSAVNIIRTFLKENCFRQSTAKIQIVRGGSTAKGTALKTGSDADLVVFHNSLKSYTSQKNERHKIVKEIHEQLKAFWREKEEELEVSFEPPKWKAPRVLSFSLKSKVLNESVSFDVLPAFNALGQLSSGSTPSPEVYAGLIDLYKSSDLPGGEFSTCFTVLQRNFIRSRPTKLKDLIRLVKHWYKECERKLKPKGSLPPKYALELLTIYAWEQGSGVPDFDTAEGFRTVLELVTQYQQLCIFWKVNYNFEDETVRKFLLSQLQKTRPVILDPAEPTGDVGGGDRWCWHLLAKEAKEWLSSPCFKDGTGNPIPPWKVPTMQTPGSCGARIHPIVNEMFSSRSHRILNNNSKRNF
UniProt Q9Y6B6: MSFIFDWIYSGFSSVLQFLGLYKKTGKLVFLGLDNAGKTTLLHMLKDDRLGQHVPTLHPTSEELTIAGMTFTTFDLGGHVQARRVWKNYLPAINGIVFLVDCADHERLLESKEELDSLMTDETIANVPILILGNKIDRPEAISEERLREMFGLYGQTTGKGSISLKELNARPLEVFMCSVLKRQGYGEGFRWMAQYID
UniProt Q96LA8, whole entry, looked up: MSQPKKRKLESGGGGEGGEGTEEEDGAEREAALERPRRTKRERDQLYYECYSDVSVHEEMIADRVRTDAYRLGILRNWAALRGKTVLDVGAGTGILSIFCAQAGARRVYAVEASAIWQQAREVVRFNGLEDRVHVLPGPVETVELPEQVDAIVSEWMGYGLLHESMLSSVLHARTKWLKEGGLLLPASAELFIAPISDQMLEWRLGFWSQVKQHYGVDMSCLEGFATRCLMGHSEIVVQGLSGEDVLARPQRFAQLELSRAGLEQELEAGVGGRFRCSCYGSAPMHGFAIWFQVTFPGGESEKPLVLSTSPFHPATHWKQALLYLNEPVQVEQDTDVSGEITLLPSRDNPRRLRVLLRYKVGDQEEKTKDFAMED

Compound: [O-][N+](C(C1=C(C(O)=C2)NC(C(C=C3)=CC=C3Cl)C4C1C=CC4)=C2Cl)=O
Assay: melting temperature shift (compound 7 minus DMSO); higher = compound stabilises the protein
Conditions: 10 µM
Experimental: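 Thermal proteome profiling (TMT mass spectrometry) in intact DAOY medulloblastoma cells or DAOY lysates treated with 10 µM compound 7 or DMSO, heated at 10 temperatures from 40.5 to 73.8 °C for 3 min. Melting curves were fitted with the Bioconductor TPP package, and the melting point difference between compound and vehicle is reported per protein (single curve per condition).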

[1] = system: DAOY cell lysate, treatment time: 20 min, 4 °C
[2] = system: intact DAOY cells, treatment time: 90 min, 37 °C

Target | melting temperature shift [1] [°C] | melting temperature shift [2] [°C]
UniProt Q3B7J2 | -2.32 | –
P30462 (UniProt P01889) | 1.49 | –
STRBP (UniProt Q96SI9) | 1.32 | 0.15
CNBP (UniProt P62633) | -2.55 | –
UniProt Q9ULJ3 | 2.2 | –
MARS (UniProt P56192) | -1.6 | -0.746
GNAI3 (UniProt P08754) | 0.822 | -0.189
KLC1 (UniProt Q07866) | -0.485 | -0.433
RPL7L1 (UniProt Q6DKI1) | 1.11 | 2.14
ARHGEF2 (UniProt Q92974) | -0.488 | -0.513
MRPS9 (UniProt P82933) | 1 | -0.929
UniProt Q8N7X1 | – | -0.341
UniProt Q96J66 | – | -0.617
UniProt Q92784 | -2.06 | –
NSF (UniProt P46459) | 0.676 | -0.711
APH1A (UniProt Q96BI3) | 0.144 | -2.35
MIEN1 (UniProt Q9BRT3) | -1.85 | -2.01
NUP88 (UniProt Q99567) | -0.265 | -0.0701
GABPB1 (UniProt Q06547) | -1.06 | -0.687
CUL4A (UniProt Q13619) | 0.354 | -0.426
BUD31 (UniProt P41223) | 0.278 | -0.25
SGPL1 (UniProt O95470) | 1.74 | 1.28
UniProt Q6ZN28 | -0.141 | 0.344

Target | melting temperature shift [1] [°C] | melting temperature shift [2] [°C]
SNX3 (UniProt O60493) | -1.16 | -1.14
INTS7 (UniProt Q9NVH2) | -1.81 | -0.156
MYADM (UniProt Q96S97) | 2.07 | –
UniProt O60282 | -1.15 | 2.24
MED1 (UniProt Q15648) | -0.672 | 2.13
RABGGTA (UniProt Q92696) | -0.349 | 0.357
ID1 (UniProt P41134) | 0.367 | –
IDE (UniProt P14735) | -0.0662 | 0.434
LIN7C (UniProt Q9NUP9) | 1.2 | -0.0798
UniProt Q9ULV0 | – | -0.38
VAMP7 (UniProt P51809) | 0.46 | -0.52
UniProt O60507 | 1.5 | 0.143
SCAF11 (UniProt Q99590) | 0.528 | 0.613
CDK5 (UniProt Q00535) | 0.617 | -0.932
PLPP2 (UniProt O43688) | – | 4.01
UniProt Q9NQ11 | – | -2.76
CTSC (UniProt P53634) | -1.6 | -0.403
PGGT1B (UniProt P53609) | -0.802 | -0.0363
DIAPH1 (UniProt O60610) | -0.482 | 0.245
CSRP1 (UniProt P21291) | -2.92 | –
NFKB1 (UniProt P19838) | 0.449 | 0.689
UniProt P83881 | 0.588 | -0.809
SLC35F6 (UniProt Q8N357) | 3.4 | -9.94

Target | melting temperature shift [1] [°C] | melting temperature shift [2] [°C]
UniProt P63092 | 0.863 | -0.571
VAT1 (UniProt Q99536) | -0.0998 | -0.54
ABCB8 (UniProt Q9NUT2) | -1.78 | -2.18
NOA1 (UniProt Q8NC60) | -0.417 | –
PUM2 (UniProt Q8TB72) | 1.73 | 1.75
ACTG1 (UniProt P63261) | 1.67 | 1.09
TBC1D22A (UniProt Q8WUA7) | -0.891 | –
PUS3 (UniProt Q9BZE2) | 0.529 | -0.389
STRIP1 (UniProt Q5VSL9) | 0.179 | 0.502
UniProt O60732 | -0.939 | -0.486
UniProt Q9UH62 | 1.41 | 0.963
FAF2 (UniProt Q96CS3) | 0.931 | -0.574
HNRNPA0 (UniProt Q13151) | 1.78 | -1.09
UniProt Q9UFF9 | -1.43 | -2.11
ANKHD1 (UniProt Q8IWZ3) | 0.187 | 0.538
LAMB1 (UniProt P07942) | 0.878 | 0.131
VANGL1 (UniProt Q8TAA9) | 1.28 | -0.858
WAPL (UniProt Q7Z5K2) | -0.289 | -0.642
UniProt P17535 | 4.63 | –
PRMT9 (UniProt Q6P2P2) | -0.958 | –
USP48 (UniProt Q86UV5) | 0.00471 | 0.148
UniProt Q05513 | – | -0.837
UniProt P29728 | -0.0939 | –

Target | melting temperature shift [1] [°C] | melting temperature shift [2] [°C]
TOMM40 (UniProt O96008) | 3.83 | –
KIAA1217 (UniProt Q5T5P2) | 3.03 | -1.63
CDC20 (UniProt Q12834) | -0.492 | -0.729
P3H2 (UniProt Q8IVL5) | -0.551 | 1.28
EPN2 (UniProt O95208) | -0.392 | -1.83
KCTD15 (UniProt Q96SI1) | -0.778 | 1.14
HNRNPH2 (UniProt P55795) | 0.0131 | 2.77
ICAM1 (UniProt P05362) | 4.27 | –
MDN1 (UniProt Q9NU22) | -0.849 | -2.55
UniProt P81274 | 0.472 | -0.219
SMPD4 (UniProt Q9NXE4) | – | 0.434
DNM2 (UniProt P50570) | -0.452 | -0.759
ITPA (UniProt Q9BY32) | -0.708 | -0.548
TOR1B (UniProt O14657) | 0.537 | –
SAR1B (UniProt Q9Y6B6) | -0.277 | -0.991
PRMT6 (UniProt Q96LA8) | -2.6 | -0.0971
DARS (UniProt P14868) | -0.942 | -0.373
MRPL54 (UniProt Q6P161) | 0.539 | –
MARK1 (UniProt Q9P0L2) | -4.05 | 0.545
RPAP3 (UniProt Q9H6T3) | -0.711 | -0.483

Fetched one by one from the entries so far:
Target | melting temperature shift [1] [°C] | melting temperature shift [2] [°C]
UniProt Q9UFF9 | -1.43 | -2.11
APH1A (UniProt Q96BI3) | 0.144 | -2.35

Full records from above. Order of values: melting temperature shift [1] [°C]	melting temperature shift [2] [°C]
CDC20 (UniProt Q12834) is listed as -0.492	-0.729
MYADM (UniProt Q96S97) is listed as 2.07	–
BUD31 (UniProt P41223) is listed as 0.278	-0.25

Single values are uncertain, as repeats are few or missing.
